Test results: the supplement of paper PMC6411743
± gives the standard deviation of the averaged measurements. The list shows a part of the results, in another mix than the full data.

Assays:
Experiment in all cases: NP40-soluble protein abundance relative to vehicle (solubility fold change) (ratio); higher = more soluble protein in presence of AMP-PNP
[1] = target: T1, NHLRC2 (UniProt Q8NBF2)
T1 sequence (whole entry): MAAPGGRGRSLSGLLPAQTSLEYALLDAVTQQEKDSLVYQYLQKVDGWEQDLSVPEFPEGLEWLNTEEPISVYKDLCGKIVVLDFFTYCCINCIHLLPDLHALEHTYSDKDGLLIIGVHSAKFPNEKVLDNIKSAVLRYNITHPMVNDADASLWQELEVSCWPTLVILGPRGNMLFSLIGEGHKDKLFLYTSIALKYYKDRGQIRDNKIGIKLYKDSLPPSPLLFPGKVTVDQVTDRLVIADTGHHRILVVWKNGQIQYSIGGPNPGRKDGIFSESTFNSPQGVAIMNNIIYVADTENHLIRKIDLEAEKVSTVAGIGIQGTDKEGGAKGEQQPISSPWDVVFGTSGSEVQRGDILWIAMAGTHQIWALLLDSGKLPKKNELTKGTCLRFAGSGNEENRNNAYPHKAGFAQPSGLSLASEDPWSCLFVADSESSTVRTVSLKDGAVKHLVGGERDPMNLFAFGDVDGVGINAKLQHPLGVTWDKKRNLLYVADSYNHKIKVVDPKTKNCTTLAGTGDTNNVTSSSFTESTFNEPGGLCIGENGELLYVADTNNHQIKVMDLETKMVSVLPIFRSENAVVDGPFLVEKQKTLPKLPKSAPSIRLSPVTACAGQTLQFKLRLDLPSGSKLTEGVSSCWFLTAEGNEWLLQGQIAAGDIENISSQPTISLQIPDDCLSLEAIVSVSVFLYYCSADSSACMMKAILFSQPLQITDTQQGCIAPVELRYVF
Summary of the method: (§1)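 Jurkat crude lysate prepared with a Dounce homogeniser was treated at eight concentrations spanning 0.1 to 10 mM, 10 min at room temperature then 3 min at 37 °C. Solubilisation with 0.8% NP40 and benzonase and ultracentrifugation preceded TMT labelling of the supernatant for LC-MS/MS. Fold change against the detergent-processed vehicle was determined per replicate from vsn-normalised intensities, across three independent experiments.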

[2] = target: T2, PLD3 (UniProt Q8IV08)
T2 sequence (whole entry): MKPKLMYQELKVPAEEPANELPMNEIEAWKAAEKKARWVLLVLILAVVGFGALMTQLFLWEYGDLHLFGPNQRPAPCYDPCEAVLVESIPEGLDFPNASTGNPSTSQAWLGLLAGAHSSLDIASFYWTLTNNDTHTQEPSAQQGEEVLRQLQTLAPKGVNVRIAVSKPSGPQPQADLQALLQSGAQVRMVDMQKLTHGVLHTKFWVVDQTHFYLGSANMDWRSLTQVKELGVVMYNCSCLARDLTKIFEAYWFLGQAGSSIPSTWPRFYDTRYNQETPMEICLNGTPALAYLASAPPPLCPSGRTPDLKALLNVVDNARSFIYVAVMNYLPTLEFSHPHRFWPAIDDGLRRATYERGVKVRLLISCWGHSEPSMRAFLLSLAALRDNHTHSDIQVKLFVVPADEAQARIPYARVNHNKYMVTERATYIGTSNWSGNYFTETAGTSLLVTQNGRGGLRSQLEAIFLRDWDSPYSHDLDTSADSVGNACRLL
Summary of the method: as §1

[3] = target: T3, SLFN11 (UniProt Q7Z7L1)
T3 sequence (whole entry): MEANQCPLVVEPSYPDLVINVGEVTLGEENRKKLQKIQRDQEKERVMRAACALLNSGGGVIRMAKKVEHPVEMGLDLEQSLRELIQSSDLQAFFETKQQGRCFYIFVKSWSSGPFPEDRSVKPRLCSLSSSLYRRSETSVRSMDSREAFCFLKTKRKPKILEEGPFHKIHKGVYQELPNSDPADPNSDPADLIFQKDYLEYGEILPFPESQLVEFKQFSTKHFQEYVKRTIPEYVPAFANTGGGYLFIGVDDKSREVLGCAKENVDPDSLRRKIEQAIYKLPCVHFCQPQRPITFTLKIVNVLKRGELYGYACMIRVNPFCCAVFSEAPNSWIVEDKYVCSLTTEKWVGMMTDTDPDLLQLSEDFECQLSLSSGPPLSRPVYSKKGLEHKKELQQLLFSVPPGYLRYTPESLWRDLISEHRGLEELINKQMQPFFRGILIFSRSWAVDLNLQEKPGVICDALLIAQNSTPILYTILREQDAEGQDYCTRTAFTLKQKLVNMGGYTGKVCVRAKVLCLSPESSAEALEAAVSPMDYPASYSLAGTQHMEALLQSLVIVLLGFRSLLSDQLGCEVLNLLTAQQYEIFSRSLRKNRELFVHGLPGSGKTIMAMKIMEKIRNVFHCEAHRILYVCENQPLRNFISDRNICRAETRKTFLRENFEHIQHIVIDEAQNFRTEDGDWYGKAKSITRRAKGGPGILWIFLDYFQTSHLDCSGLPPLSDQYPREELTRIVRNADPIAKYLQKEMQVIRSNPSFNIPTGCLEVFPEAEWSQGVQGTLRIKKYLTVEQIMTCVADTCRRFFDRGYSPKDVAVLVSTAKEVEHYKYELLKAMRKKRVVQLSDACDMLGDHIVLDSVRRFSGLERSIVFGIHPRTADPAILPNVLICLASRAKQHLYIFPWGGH
Summary of the method: as §1

[4] = target: T4, SPATS2 (UniProt Q86XZ4)
T4 sequence (whole entry): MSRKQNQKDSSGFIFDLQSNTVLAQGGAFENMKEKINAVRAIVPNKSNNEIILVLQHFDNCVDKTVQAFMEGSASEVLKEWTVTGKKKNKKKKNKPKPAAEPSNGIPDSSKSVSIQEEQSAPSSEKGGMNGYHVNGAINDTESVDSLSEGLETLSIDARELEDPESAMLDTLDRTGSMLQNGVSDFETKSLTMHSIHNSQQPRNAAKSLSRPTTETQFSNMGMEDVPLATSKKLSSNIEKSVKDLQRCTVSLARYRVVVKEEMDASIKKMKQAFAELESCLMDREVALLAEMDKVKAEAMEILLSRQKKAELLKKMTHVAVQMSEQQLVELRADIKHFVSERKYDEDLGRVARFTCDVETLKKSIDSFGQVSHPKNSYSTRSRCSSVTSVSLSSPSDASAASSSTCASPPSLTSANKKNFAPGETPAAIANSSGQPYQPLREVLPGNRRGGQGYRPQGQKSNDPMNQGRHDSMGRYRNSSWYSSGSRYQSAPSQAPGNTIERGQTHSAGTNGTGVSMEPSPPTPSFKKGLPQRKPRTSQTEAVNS
Summary of the method: as §1

[5] = target: T5, STX12 (UniProt Q86Y82)
T5 sequence (whole entry): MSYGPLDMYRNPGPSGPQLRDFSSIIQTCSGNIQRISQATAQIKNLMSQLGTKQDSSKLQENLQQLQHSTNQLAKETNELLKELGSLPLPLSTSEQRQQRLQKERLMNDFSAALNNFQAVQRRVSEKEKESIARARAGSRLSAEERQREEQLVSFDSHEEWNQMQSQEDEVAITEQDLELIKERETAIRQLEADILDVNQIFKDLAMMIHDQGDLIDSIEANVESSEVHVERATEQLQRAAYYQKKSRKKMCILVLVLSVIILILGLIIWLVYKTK
Summary of the method: as §1

Nc1ncnc2c1ncn2[C@@H]1O[C@H](COP(=O)(O)OP(=O)(O)NP(=O)(O)O)[C@@H](O)[C@H]1O [adenylyl imidodiphosphate]
NP40-soluble protein abundance ([1]; concentration: 1mM): 1.01 ± 0.014
NP40-soluble protein abundance ([1]; concentration: 2mM): 0.967 ± 0.032
NP40-soluble protein abundance ([1]; concentration: 4mM): 0.9683 ± 0.0036
NP40-soluble protein abundance ([1]; concentration: 6mM): 0.967 ± 0.03
NP40-soluble protein abundance ([1]; concentration: 8mM): 0.958 ± 0.022
NP40-soluble protein abundance ([1]; concentration: 10mM): 0.916 ± 0.015
NP40-soluble protein abundance ([2]; concentration: 1mM): 0.99 ± 0.038
NP40-soluble protein abundance ([2]; concentration: 2mM): 0.967 ± 0.013
NP40-soluble protein abundance ([2]; concentration: 4mM): 0.987 ± 0.029
NP40-soluble protein abundance ([2]; concentration: 6mM): 0.9623 ± 0.0042
NP40-soluble protein abundance ([2]; concentration: 8mM): 0.9778 ± 0.0079
NP40-soluble protein abundance ([2]; concentration: 10mM): 0.988 ± 0.025
NP40-soluble protein abundance ([3]; concentration: 1mM): 1.05 ± 0.018
NP40-soluble protein abundance ([3]; concentration: 2mM): 1.02 ± 0.095
NP40-soluble protein abundance ([3]; concentration: 4mM): 1.04 ± 0.072
NP40-soluble protein abundance ([3]; concentration: 6mM): 1.01 ± 0.04
NP40-soluble protein abundance ([3]; concentration: 8mM): 1.03 ± 0.08
NP40-soluble protein abundance ([3]; concentration: 10mM): 1.03 ± 0.13
NP40-soluble protein abundance ([4]; concentration: 1mM): 1.019 ± 0.0082
NP40-soluble protein abundance ([4]; concentration: 2mM): 1.01 ± 0.038
NP40-soluble protein abundance ([4]; concentration: 4mM): 1.022 ± 0.0088
NP40-soluble protein abundance ([4]; concentration: 6mM): 1.04 ± 0.013
NP40-soluble protein abundance ([4]; concentration: 8mM): 1.02 ± 0.038
NP40-soluble protein abundance ([4]; concentration: 10mM): 1.05 ± 0.036
NP40-soluble protein abundance ([5]; concentration: 1mM): 1.01 ± 0.016
NP40-soluble protein abundance ([5]; concentration: 2mM): 1.08 ± 0.059
NP40-soluble protein abundance ([5]; concentration: 4mM): 1.01 ± 0.051
NP40-soluble protein abundance ([5]; concentration: 6mM): 1.02 ± 0.031
NP40-soluble protein abundance ([5]; concentration: 8mM): 0.984 ± 0.016
NP40-soluble protein abundance ([5]; concentration: 10mM): 0.992 ± 0.049
